According to PubChem BioAssay AID493014 (National Center for Advancing Translational Sciences (NCATS), 2011):
The other results are listed elsewhere or left out. Further columns of the screen follow, without active or inactive calls. Most of these compounds were active or inconclusive in the main read-out, so they are no random draw. Words in brackets tell the shape of the fitted curve; partial curves, single points and poor fits give uncertain potencies.

Experiment: qHTS Assay to Find Inhibitors of Chronic Active B-Cell Receptor Signaling
Conditions: ABC-DLBCL IkBa-CBG/CBR reporter, luminescence ratio (green luciferase fused to IkBa over red control in TMD8 lymphoma cells), 4 h
Procedure, shortened: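 Cell line TMD8 (human ABC DLBCL), stably expressing tet-inducible CBG68-IkBa fusion and CBR; IMDM/0.5% FBS; cpd up to 46 uM; dox induction, 4 h, 37C/5% CO2; dual luminescence; green/red ratio; MG132 control.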

[1] = measured here: CBR red luminescence, cell number
[2] = measured here: IkBa-CBG green luminescence

Row | SMILES | AC50 [1] | AC50 [2]
1 | COc1ccc(-n2nc(C#N)c(Cl)cc2=O)cc1 | 7.08 µM [falling, partial curve] | 7.08 µM [rising, partial curve, poor fit]
2 | O=C(CCCN1C(=O)/C(=C/c2ccccc2Cl)SC1=S)NNC(=O)c1ccc(Cl)cc1 | 0.891 µM [falling, full curve, poor fit] | 
3 | Cc1ccc(/C=C/C(=O)NCc2cccs2)cc1 | 18.4 µM [falling, partial curve] | 
4 | Nc1nc(SCc2nc(-c3ccccc3)no2)[nH]c(=O)c1-c1ccccc1 | 0.206 µM [rising, full curve] | 16.4 µM [falling, partial curve]
5 | COCC(C)n1c(C)cc(C(=O)CSc2ncccn2)c1C (stereo unspecified) | 35.5 µM [rising, partial curve, poor fit] | 
6 | COc1cc(/C=N/n2nnnc2N)cc(OC)c1OC | 35.5 µM [falling, single point] | 
7 | O=C1C(=O)N(C/C=C/c2ccccc2)c2ccccc21 | 15.8 µM [rising, partial curve] | 22.4 µM [falling, single point]
8 | Oc1ccccc1CN1CCN(C(O)(c2ccccc2)c2ccccc2)CC1 | 22.4 µM [falling, single point] | 
9 | CCOC(=O)c1cccc(NC(=O)CSc2nnc(C3CCCCC3)n2CC)c1 | 28.2 µM [falling, single point] | 
10 | COc1ccc(C)c(Cn2c(-c3nonc3N)nc3ccccc32)c1 | 7.08 µM [rising, partial curve] | 10 µM [falling, partial curve, poor fit]
11 | Cc1cc(C)nc(NC(=O)c2ccc3c(c2)OCO3)c1 | 11.2 µM [falling, partial curve] | 
12 | Cc1ccc(N(C)S(=O)(=O)c2c[nH]c3ccc([N+](=O)[O-])cc23)cc1 | 11.2 µM [falling, single point] | 
13 | COc1ccccc1NC(=O)Nc1ccc(Cl)c(S(=O)(=O)Nc2ccccc2OC)c1 | 23.1 µM [falling, partial curve, poor fit] | 
14 | CC(=O)c1c(C)[nH]c(C(=O)COC(=O)c2ccc(Cl)nc2)c1C | 0.651 µM [rising, full curve, poor fit] | 
15 | C/C(=N/N=C(/C)c1cccs1)c1cccs1 | 35.5 µM [rising, single point] | 
16 | COc1ccc(C(=O)NCCn2ccc3ccccc32)c(OC)c1 |  | 15.8 µM [rising, partial curve, poor fit]
17 | CCOC(=O)C1CCN(C2CC(=O)N(c3cccc(Cl)c3)C2=O)CC1 (stereo unspecified) | 13 µM [falling, partial curve, poor fit] | 
18 | CCOc1ccccc1N1CCN(Cc2ccco2)CC1 | 0.58 µM [falling, full curve] | 
19 | O=C(CCNc1n[nH]c(=O)[nH]c1=O)N/N=C/c1ccccc1Br | 0.447 µM [rising, full curve, poor fit] | 
20 | CCOC(=O)C1CCCN(C(=O)C(C)Oc2ccc(Cl)cc2Cl)C1 (stereo unspecified) | 0.164 µM [falling, full curve, poor fit] | 
21 | c1ccc(NCc2nc3ccccc3n2CCOc2ccccc2)cc1 | 4.11 µM [falling, partial curve] | 

Row | SMILES | AC50 [1] | AC50 [2]
22 | Cn1c(SCc2nnc3n2CCCCC3)nc2ccccc21 | 1.3 µM [falling, partial curve, poor fit] | 
23 | c1ccc2c(c1)Nc1nccnc1S2 | 10.3 µM [falling, partial curve] | 
24 | Oc1ccc(-c2[nH]ncc2-c2ccc(Br)cc2)c(O)c1 | 35.5 µM [rising, single point] | 
25 | Cc1c(/C=C/C(=O)c2ccc(Cl)s2)cnn1C | 29.1 µM [falling, single point] | 
26 | Cc1nn(-c2ccccc2)c(Cl)c1C(=O)NC1CCCCC1 | 5.01 µM [rising, single point] | 
27 | C[C@H]1CN([C@@H](C)CO)C(=O)Cc2cc(NC(=O)CCC(F)(F)F)ccc2O[C@H]1CN(C)S(=O)(=O)c1ccc(F)cc1 | 18.4 µM [rising, single point] | 16.4 µM [falling, partial curve, poor fit]
28 | Cc1nc2ccccc2c2oc(C(=O)NCC3CCCO3)cc12 (stereo unspecified) | 10 µM [falling, partial curve, poor fit] | 
29 | CCOC(=O)C1=CN(Cc2cccc(F)c2)S(=O)(=O)NC1c1cccc(OC)c1 (stereo unspecified) | 32.6 µM [falling, single point] | 
30 | COc1ccc(NC(=O)CN(C)C(=O)/C=C/c2cn(-c3ccccc3)nc2-c2ccc(F)cc2)cc1 | 8.2 µM [rising, partial curve, poor fit] | 
31 | O=C(Cn1ncc(Cl)c(Cl)c1=O)c1ccc2c(c1)OCCO2 | 10.3 µM [falling, partial curve, poor fit] | 18.4 µM [rising, partial curve, poor fit]
32 | CCCc1cc(=O)oc2c(C)c(OCC(=O)NCCCN3CCOCC3)ccc12 | 35.5 µM [rising, single point] | 
33 | CCN(CC)c1ccc(/C=N/Nc2nc3ccccc3[nH]2)cc1 | 20.6 µM [falling, single point] | 6.51 µM [falling, single point]
34 | CCC1CCc2c(sc(NC(=O)c3ccoc3C)c2C(N)=O)C1 (stereo unspecified) | 2.91 µM [rising, single point] | 
35 | CCOC(=O)c1sc(NC(=O)/C=C/c2ccccc2)nc1C | 0.082 µM [falling, full curve, poor fit] | 
36 | COc1ccc2nc3sc(C(=O)NCc4cccs4)c(N)c3cc2c1 | 0.282 µM [falling, full curve, poor fit] | 
37 | COC(=O)C(NC(=O)C(CC(C)C)NC(=O)C1CCC(C)CC1)C(C)C (stereo unspecified) | 29.1 µM [falling, single point] | 
38 | Cc1ccc(NS(=O)(=O)c2cc(NC(=O)c3ccc4c(c3)NC(=O)CS4)ccc2C)c(C)c1 | 14.1 µM [falling, single point] | 
39 | CC/C(=C(/CC)c1ccc(O)cc1)c1ccc(O)cc1 | 35.5 µM [falling, single point] | 
40 | Cc1nn2c(N)c(C#N)cnc2c1-c1ccc(Cl)cc1 | 3.66 µM [rising, partial curve, poor fit] | 
41 | COc1ccc(OC)c(-c2cc(C(=O)NCc3ccco3)no2)c1 |  | 15.8 µM [falling, partial curve, poor fit]
42 | Cc1nn(-c2ccccc2)c(C)c1C(=O)OCC(=O)N(C)C1CCS(=O)(=O)C1 (stereo unspecified) | 0.282 µM [falling, full curve] | 

Arranged by molar mass (smallest number first): some entries from above.
Row | SMILES | AC50 [1] | AC50 [2]
33 | CCN(CC)c1ccc(/C=N/Nc2nc3ccccc3[nH]2)cc1 | 20.6 µM [falling, single point] | 6.51 µM [falling, single point]
41 | COc1ccc(OC)c(-c2cc(C(=O)NCc3ccco3)no2)c1 |  | 15.8 µM [falling, partial curve, poor fit]
37 | COC(=O)C(NC(=O)C(CC(C)C)NC(=O)C1CCC(C)CC1)C(C)C (stereo unspecified) | 29.1 µM [falling, single point] | 
29 | CCOC(=O)C1=CN(Cc2cccc(F)c2)S(=O)(=O)NC1c1cccc(OC)c1 (stereo unspecified) | 32.6 µM [falling, single point] | 

(cont.)

Row | SMILES | AC50 [1] | AC50 [2]
43 | CCC(C(=O)NC1CCCC1)N(C(=O)Cn1nnc(-c2ccc(OC)c(OC)c2)n1)C1CCCCC1 (stereo unspecified) | 35.5 µM [falling, single point] | 
44 | COc1ccc(Nc2nc(-c3sc(C)nc3C)cs2)cc1 | 2.24 µM [rising, full curve, poor fit] | 11.2 µM [falling, partial curve, poor fit]
45 | CNC(=O)CC1C(=O)N(c2ccc(OC)cc2)C(=S)N1NC(=O)c1cccc(F)c1 (stereo unspecified) | 8.91 µM [rising, partial curve, poor fit] | 
46 | COc1cccc(NC(=O)c2ncc(Cl)c(Cl)c2Cl)c1 | 12.6 µM [falling, partial curve] | 
47 | O=C(Nc1ccc(Cl)c(Cl)c1)C1=Cc2ccccc2OC1 | 18.4 µM [falling, single point] | 32.6 µM [rising, partial curve, poor fit]
48 | CCc1ccc(NC(=S)NC2CC3CCCC(C2)N3Cc2ccccc2)cc1 (stereo unspecified) | 35.5 µM [falling, single point] | 
49 | Cc1cc(C)c(S(=O)(=O)c2ccccc2Cl)c(=O)[nH]1 | 20 µM [rising, single point] | 
50 | CCOc1ccc(CC2NCCc3cc(OCC)c(OCC)cc32)cc1OCC (stereo unspecified) | 35.5 µM [falling, single point] | 
51 | COC(=O)CSc1nc2ccc(NC(C)=O)cc2s1 | 8.91 µM [falling, partial curve] | 
52 | CC(C)NC(=S)N/N=C/c1cccs1 | 29.1 µM [rising, single point] | 
53 | COc1ccc(/C=C2/C(=O)ON=C2C)cc1Br | 0.794 µM [rising, partial curve, poor fit] | 
54 | CN(C)CCCN(Cc1ccccc1)C(=S)Nc1cccc(C(F)(F)F)c1 | 32.6 µM [falling, single point] | 
55 | Cc1ccnc(NC(=O)CCCOc2cc(=O)n(C)c3ccccc23)c1 | 35.5 µM [falling, single point] | 
56 | CC(C)(CNC(=O)c1cccs1)CNC(=O)c1cccs1 | 31.6 µM [falling, partial curve, poor fit] | 
57 | O=C(CCCC(=O)OCC(Cl)=C(Cl)Cl)Nc1ccccc1 | 29.1 µM [falling, single point] | 
58 | Brc1ccc(-c2cn3ccccc3n2)cc1 | 10 µM [falling, single point] | 
59 | c1nc(N2CCCCCC2)c2[nH]cnc2n1 | 29.1 µM [falling, partial curve, poor fit] | 
60 | O=C(NCC1CCCO1)c1nc2c(nnn2Cc2ccc(F)cc2)c(=O)[nH]1 (stereo unspecified) | 5.62 µM [rising, single point] | 
61 | N#Cc1c(-c2ccco2)nc(SCc2ccc(F)cc2)[nH]c1=O | 0.326 µM [rising, partial curve, poor fit] | 
62 | O=C(CSc1nc2c(c(=O)n1-c1ccc(Br)cc1)SCC2)NCc1ccco1 | 6.51 µM [rising, partial curve, poor fit] | 
